These results are taken from patent US20080131366.

Protein sequences, listed by entry. Tags and fused reporters are not part of them. Lines headed by an entry give the natural chain unless they say otherwise; changes in a name come on top. Residues count along the entry.
UniProt Q02447: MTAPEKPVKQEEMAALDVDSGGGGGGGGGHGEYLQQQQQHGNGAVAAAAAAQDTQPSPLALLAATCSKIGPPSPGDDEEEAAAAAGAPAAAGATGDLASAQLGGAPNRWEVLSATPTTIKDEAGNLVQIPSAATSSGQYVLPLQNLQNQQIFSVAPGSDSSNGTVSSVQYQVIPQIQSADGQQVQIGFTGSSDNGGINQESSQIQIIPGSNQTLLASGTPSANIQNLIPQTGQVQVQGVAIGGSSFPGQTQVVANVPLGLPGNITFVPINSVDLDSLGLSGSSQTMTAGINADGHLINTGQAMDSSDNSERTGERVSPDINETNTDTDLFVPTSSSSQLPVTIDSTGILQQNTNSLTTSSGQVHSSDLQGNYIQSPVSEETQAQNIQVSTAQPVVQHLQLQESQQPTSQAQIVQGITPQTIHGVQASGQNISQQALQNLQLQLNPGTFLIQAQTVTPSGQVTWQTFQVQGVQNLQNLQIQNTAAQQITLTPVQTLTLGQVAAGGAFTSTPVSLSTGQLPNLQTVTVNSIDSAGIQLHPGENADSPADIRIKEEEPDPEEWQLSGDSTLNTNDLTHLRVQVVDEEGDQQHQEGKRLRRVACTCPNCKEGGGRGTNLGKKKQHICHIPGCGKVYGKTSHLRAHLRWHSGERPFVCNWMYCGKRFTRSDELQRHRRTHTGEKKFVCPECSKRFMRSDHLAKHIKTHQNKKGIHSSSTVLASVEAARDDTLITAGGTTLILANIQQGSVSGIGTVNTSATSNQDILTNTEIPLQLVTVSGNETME
UniProt P08047, 2-785: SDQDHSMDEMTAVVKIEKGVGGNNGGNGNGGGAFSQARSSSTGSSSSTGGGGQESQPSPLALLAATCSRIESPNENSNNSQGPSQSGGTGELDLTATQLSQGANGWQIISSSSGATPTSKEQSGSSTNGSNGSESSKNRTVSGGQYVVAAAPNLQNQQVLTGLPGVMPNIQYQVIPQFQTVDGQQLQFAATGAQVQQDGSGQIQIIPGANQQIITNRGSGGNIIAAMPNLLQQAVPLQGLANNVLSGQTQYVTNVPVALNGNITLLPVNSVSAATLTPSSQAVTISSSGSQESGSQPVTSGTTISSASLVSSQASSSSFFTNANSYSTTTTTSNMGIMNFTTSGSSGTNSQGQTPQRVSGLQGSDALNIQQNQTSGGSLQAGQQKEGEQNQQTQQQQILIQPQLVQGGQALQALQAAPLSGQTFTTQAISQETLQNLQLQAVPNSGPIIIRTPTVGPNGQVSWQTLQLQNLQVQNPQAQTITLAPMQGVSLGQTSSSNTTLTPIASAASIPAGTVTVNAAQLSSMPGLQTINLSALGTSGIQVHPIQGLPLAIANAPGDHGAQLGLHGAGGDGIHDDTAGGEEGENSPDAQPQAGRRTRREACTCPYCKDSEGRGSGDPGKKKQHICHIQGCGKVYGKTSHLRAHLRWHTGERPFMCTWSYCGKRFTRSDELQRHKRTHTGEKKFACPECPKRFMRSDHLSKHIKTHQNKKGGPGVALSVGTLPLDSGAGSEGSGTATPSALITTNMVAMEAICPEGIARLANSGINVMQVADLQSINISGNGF

At least one result comes from cells or an extract, where the contact may be indirect. For some of these results: Negatives hold for the conditions tested.

The target of one data set is Sp3 (Homo sapiens) (UniProt Q02447). In words: EMSA. The settings on record: HeLa NE, protein in an extract, protein details: HeLa nuclear extract, Promega, label: 32P. A general note: In EMSA bound probe runs differently from free probe, usually more slowly.
The target in a further data set is Sp1 (Homo sapiens) (UniProt P08047). The data set is described as follows: EMSA. The following applies: HeLa NE, protein in an extract, protein details: HeLa nuclear extract, Promega, label: 32P.

On to “ATTCGATCGGGGCGGGGCGAG (double strand) [consensus Sp1 probe]”, for which the binding result with Sp3 (Homo sapiens) (Sp3 complex of different mobility from Sp1) and with Sp1 (Homo sapiens) was “binds” each time.

In the case of “GGAGATGGGGGCAGGGCTCTATCTGCCCCAGGCTTCCGTCC (double strand) [FR-alpha P4 promoter probe -89 to -50]”, the binding result with Sp3 (Homo sapiens) (Sp3 binding excluded by quantitative blocking with Sp1 antibody) is listed as “no binding”; with Sp1 (Homo sapiens) (band blocked by Sp1 antibody), “binds”.
